These are yes or no findings as the source states them, for the method shown. Binding seen in cells or lysates may run through a third protein. Binding can be weak; no strength is given. Tags and fused reporters may be left off the sequences shown.
Molecular target: Flag-synpo-long (synaptopodin, long isoform)
Assay: co-IP; HEK293T co-transfected with Flag-synpo-long and GFP-NEFH, 72 h; lysate in IP buffer (50 mM Tris pH 7.5, 150 mM NaCl, 1.0% Triton X100); anti-FLAG-M2 agarose beads overnight at 4 °C; blot with anti-GFP antibody

B1: GFP-NEFH (neurofilament heavy polypeptide) (protein, UniProt P19246 1-1090)
chain: MMSFGSADALLGAPFAPLHGGGSLHYSLSRKAGPGGTRSAAGSSSGFHSWARTSVSSVSASPSRFRGAASSTDSLDTLSNGPEGCVVAAVAARSEKEQLQALNDRFAGYIDKVRQLEAHNRSLEGEAAALRQQQAGRAAMGELYEREVREMRGAVLRLGAARGQLRLEQEHLLEDIAHVRQRLDEEARQREEAEAAARALARFAQEAEAARVELQKKAQALQEECGYLRRHHQEEVGELLGQIQGCGAAQAQAQAEARDALKCDVTSALREIRAQLEGHAVQSTLQSEEWFRVRLDRLSEAAKVNTDAMRSAQEEITEYRRQLQARTTELEALKSTKESLERQRSELEDRHQADIASYQDAIQQLDSELRNTKWEMAAQLREYQDLLNVKMALDIEIAAYRKLLEGEECRIGFGPSPFSLTEGLPKIPSISTHIKVKSEEMIKVVEKSEKETVIVEGQTEEIRVTEGVTEEEDKEAQGQEGEEAEEGEEKEEEEGAAATSPPAEEAASPEKETKSRVKEEAKSPGEAKSPGEAKSPAEAKSPGEAKSPGEAKSPGEAKSPAEPKSPAEPKSPAEAKSPAEPKSPATVKSPGEAKSPSEAKSPAEAKSPAEAKSPAEAKSPAEAKSPAEAKSPAEAKSPATVKSPGEAKSPSEAKSPAEAKSPAEAKSPAEAKSPAEVKSPGEAKSPAEPKSPAEAKSPAEVKSPAEAKSPAEVKSPGEAKSPAAVKSPAEAKSPAAVKSPGEAKSPGEAKSPAEAKSPAEAKSPIEVKSPEKAKTPVKEGAKSPAEAKSPEKAKSPVKEDIKPPAEAKSPEKAKSPVKEGAKPPEKAKPLDVKSPEAQTPVQEEAKHPTDIRPPEQVKSPAKEKAKSPEKEEAKTSEKVAPKKEEVKSPVKEEVKAKEPPKKVEEEKTLPTPKTEAKESKKDEAPKEAPKPKVEEKKETPTEKPKDSTAEAKKEEAGEKKKAVASEEETPAKLGVKEEAKPKEKTETTKTEAEDTKAKEPSKPTETEKPKKEEMPAAPEKKDTKEEKTTESRKPEEKPKMEAKVKEDDKSLSKEPSKPKTEKAEKSSSTDQKESQPPEKTTEDKATKGEK
binding: binds

Source: paper PMC6249220
